The source of these data is publication doi:10.1101/672824.

Sequences of proteins named here, by UniProt entry; tags and fusion partners are left off. A change or cut given only in a name is not applied to a line headed by its entry. A line that says so, or that is headed by a name, gives the form on record, which may keep a tag or linker.
UniProt Q15672: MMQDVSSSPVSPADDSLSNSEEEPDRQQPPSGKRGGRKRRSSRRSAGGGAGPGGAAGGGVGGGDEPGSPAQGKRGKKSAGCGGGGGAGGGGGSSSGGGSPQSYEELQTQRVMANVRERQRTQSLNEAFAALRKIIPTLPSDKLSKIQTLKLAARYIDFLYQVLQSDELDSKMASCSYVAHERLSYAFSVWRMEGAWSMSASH
GATA1 (A0A8I3QVV2, form named): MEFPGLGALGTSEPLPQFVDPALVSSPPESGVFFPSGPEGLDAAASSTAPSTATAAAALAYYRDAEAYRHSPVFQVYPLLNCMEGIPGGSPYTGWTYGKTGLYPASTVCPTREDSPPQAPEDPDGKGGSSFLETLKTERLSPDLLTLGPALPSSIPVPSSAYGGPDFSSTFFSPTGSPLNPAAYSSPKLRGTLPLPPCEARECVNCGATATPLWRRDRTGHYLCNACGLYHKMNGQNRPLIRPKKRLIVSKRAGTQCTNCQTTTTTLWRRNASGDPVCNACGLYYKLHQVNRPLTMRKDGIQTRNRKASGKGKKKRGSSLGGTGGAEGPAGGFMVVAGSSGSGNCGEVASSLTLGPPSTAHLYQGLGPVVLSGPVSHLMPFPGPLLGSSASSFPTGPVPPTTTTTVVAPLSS
TRIP6 (A0A8I3MIK5, form named): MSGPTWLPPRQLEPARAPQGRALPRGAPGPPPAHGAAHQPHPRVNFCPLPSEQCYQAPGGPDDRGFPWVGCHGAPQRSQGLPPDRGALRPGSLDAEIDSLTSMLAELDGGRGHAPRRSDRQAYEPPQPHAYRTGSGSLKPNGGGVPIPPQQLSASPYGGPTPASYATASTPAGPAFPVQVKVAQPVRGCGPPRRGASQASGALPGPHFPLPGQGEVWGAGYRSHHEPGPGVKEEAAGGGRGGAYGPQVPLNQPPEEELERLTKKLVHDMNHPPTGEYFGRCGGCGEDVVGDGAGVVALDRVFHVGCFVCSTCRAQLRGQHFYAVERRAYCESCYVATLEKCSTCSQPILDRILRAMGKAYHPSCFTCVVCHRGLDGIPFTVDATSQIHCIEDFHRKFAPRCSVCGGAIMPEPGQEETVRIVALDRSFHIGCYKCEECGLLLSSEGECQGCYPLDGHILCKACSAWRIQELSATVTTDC

In the experiment the target is human TWIST1 (hTWIST1) stably over-expressed in MDCK cells (human) (UniProt Q15672). As to the kind of experiment: affinity purification with mass spectrometry.

No constants are given. Whether binding was seen depends on the method and setting. Binding seen in cells or lysates may run through a third protein. A yes stands for co-enrichment or nearness to the bait. Other partners may have been found.

GATA1 (from UniProt A0A8I3QVV2 1-412): the binding result is listed as “binds”.

On to TRIP6 (from UniProt A0A8I3MIK5 1-478), for which the binding entry is recorded as “binds”.
